# Data published in PubChem BioAssay AID720504 (National Center for Advancing Translational Sciences (NCATS), 2013).
# By UniProt entry, the sequences of proteins in these tests, tags left out.
# UniProt P53350, whole entry, looked up: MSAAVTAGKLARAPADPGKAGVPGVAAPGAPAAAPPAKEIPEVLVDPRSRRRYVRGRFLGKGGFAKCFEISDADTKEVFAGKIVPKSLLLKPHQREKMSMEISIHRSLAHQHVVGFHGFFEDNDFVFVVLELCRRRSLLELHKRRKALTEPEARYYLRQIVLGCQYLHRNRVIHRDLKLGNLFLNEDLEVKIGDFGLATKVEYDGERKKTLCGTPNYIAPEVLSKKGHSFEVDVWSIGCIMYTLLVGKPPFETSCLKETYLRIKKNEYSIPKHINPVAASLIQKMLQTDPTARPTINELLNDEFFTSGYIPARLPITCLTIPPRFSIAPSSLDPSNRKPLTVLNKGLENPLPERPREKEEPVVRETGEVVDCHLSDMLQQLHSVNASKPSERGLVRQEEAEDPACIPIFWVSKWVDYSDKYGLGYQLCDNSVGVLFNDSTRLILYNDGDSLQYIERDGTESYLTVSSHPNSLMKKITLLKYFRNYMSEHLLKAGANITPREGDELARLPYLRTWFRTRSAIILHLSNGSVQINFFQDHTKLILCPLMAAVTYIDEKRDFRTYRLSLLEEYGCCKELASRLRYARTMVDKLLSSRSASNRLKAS
# Among all 360,000 compounds or so, about 10,000 (2.8%) were called active. The shares of active, inactive and inconclusive entries below differ from those in the screen. Calls follow the shape of the dose curve; as a rule, active = well fitted inhibition curve with a large enough effect; inconclusive = small, poorly fitted or top-dose-only effect; inactive = flat fitted curve, though single readings scatter. Potencies of inconclusive entries are doubtful fits and often do not repeat.
# Molecular target: Serine/threonine-protein kinase PLK1 (Homo sapiens) (UniProt P53350)
# Assay: qHTS for Inhibitors of PLK1-PDB (polo-like kinase 1 - polo-box domain): Primary Screen; also: nearly all actives have a fitted effect of over 65% in size; as to max response, negative = inhibition: series mostly up to about 57 µM
# Settings: Plk1 PBD binding of FITC phosphopeptide, fluorescence polarization
# % is scaled to controls: 0 for no effect and ±100 for the full control effect; potency is read from the fitted curve at half-maximal effect.
SMILES,Potency,"max response, negative = inhibition"
S=c1[nH]nc(COc2ccccc2)n1/N=C/c1ccc(Br)s1,"inconclusive: 21.2 µM [inhibitor, partial curve]",
c1ccc(CCCNc2ncnc3nc[nH]c23)cc1,,inactive: 2.42%
Cc1ccc(-c2cc(-c3ccccc3)[nH]c(=S)c2C#N)cc1,"inconclusive: 26.7 µM [inhibitor, partial curve]",
O=C(CSc1ncc(-c2ccc(F)cc2)n1Cc1ccco1)Nc1ccc2c(c1)OCO2,,inactive: -9.27%
O=C1OC(Nc2nc3ccccc3s2)c2ccccc21 (configuration not stated),"inconclusive: 28.2 µM [inhibitor, single point]",
COc1ccccc1N1CCN(C(=O)CN(C2CCCCC2)S(C)(=O)=O)CC1,"inconclusive: 26.7 µM [inhibitor, single point]",
CCCn1nc([N+](=O)[O-])c(C(C#N)c2nc3ccccc3o2)c(Cl)c1=O (configuration not stated),active: 29.9 µM,
O=C(Nc1cc(-c2nc3ncccc3o2)ccc1Cl)c1ccc([N+](=O)[O-])o1,,inactive: -3.04%
Cc1ccc[n+](CC(=O)c2ccc(Br)cc2)c1,,inactive: -10.7%
CCOC(=O)c1c(/N=C/C2C(=O)CCCC2=O)sc(C)c1C,,inactive: -6.09%
CC(=O)Nc1cccc(NC(=O)CSc2ccc(C(F)(F)F)cc2[N+](=O)[O-])c1,"inconclusive: 23.8 µM [inhibitor, single point]",
On1c(-c2ccc(Cl)cc2)nc2ccccc21,"inconclusive: 23.8 µM [inhibitor, partial curve]",
O=S(=O)(c1ccc(N=C2NN=C(c3cc(F)ccc3F)CS2)cc1)N1CCOCC1,"inconclusive: 11.9 µM [inhibitor, partial curve]",
CCC(=O)OCC(=O)Nc1cc(C)c(C)cc1[N+](=O)[O-],active: 23.8 µM,
O=C(O)c1cc(S(=O)(=O)N2CCN(S(=O)(=O)c3ccc4ccccc4c3)CC2)ccc1Br,"inconclusive: 67 µM [inhibitor, partial curve]",
Cc1occc1C(=O)Nc1sc2c(c1C(N)=O)CCCCC2,"inconclusive: 29.9 µM [inhibitor, partial curve]",
Cc1c(C(=O)Nc2cccc(S(=O)(=O)N3CCCC3)c2)oc2ccccc12,"inconclusive: 15 µM [inhibitor, partial curve]",
O=C1CC(N2CCN(c3ccc(F)cc3)CC2)C(=O)N1c1ccccc1 (configuration not stated),,inactive: -2.61%
Cn1ccnc1SCC(=O)Nc1ccc(SC(F)F)cc1,"inconclusive: 26.7 µM [inhibitor, single point]",
CC(=O)N1CCN(c2ccc(NC(=O)c3ccccc3Cl)cc2)CC1,active: 21.2 µM,
Cc1cc(C)c2nc(SCC(=O)Nc3ccccc3N3CCOCC3)c(C#N)cc2c1,active: 29.9 µM,
CNC(=O)/C(C#N)=C\c1ccc(CNS(=O)(=O)c2ccccc2)o1,,inactive: -10.6%
CC1CCC(NC(=O)c2nn(C)c3c2CSc2ccccc2-3)CC1 (configuration not stated),"inconclusive: 29.9 µM [inhibitor, partial curve]",
O=C(Cc1cccs1)N/N=C/C=C/c1ccco1,"inconclusive: 33.6 µM [inhibitor, partial curve]",

SMILES,Potency,"max response, negative = inhibition"
COc1ccc(NC(=O)CSc2sc3c(O)cc(=O)[nH]c3c2C#N)c(OC)c1,"inconclusive: 29.9 µM [inhibitor, single point]",
COc1ccc(C(=O)O)cc1S(N)(=O)=O,,inactive: 5.22%
COc1cc(/C=C/C(=O)Nc2cc(C(F)(F)F)ccc2Cl)cc(OC)c1OC,active: 26.7 µM,
NC(=O)c1c(NC(=O)c2ccccc2)sc2c1CCC2,"inconclusive: 26.7 µM [inhibitor, partial curve]",
Oc1ccc(Br)cc1CNc1ccccn1,active: 16.8 µM,
CCN1C(=O)[C@H]2[C@H]3CN=C(SCc4ccc(C)cc4)N3[C@@](Cc3ccccc3)(C(=O)OC)[C@H]2C1=O,,inactive: -13.9%
CCOC(=O)c1c[nH]c2nc(C)ccc2c1=O,"inconclusive: 21.2 µM [inhibitor, partial curve]",
O=C(Cc1ccccc1)NCc1ccncc1,,inactive: 2.32%
Cc1cc(C)c2c(=O)n(CC(=O)Nc3ccc(Cl)cc3)sc2n1,active: 1.34 µM,
CCN(CC)S(=O)(=O)c1ccc(N2CC(C(=O)NCc3ccco3)CC2=O)cc1 (configuration not stated),,inactive: 1.67%
Cc1cc(-c2nc3ncccc3o2)ccc1NC(=O)c1ccc([N+](=O)[O-])o1,"inconclusive: 37.7 µM [inhibitor, single point]",
CCC(C)(C)NC(=O)CN(C(=O)c1csnn1)c1ccccc1-c1ccccc1,"inconclusive: 23.8 µM [inhibitor, single point]",
CCc1ccc(S(=O)(=O)/N=C2\C=C(Nc3ccc(O)cc3)C(=O)c3ccccc32)cc1,"inconclusive: 23.8 µM [inhibitor, single point]",
O/N=C/c1ccccc1Oc1ccc(Cl)cc1,active: 8.44 µM,
NC(=S)N/N=C1/CCSc2ccc3ccccc3c21,"inconclusive: 23.8 µM [inhibitor, partial curve]",
O=C1C2C3C=CC(CNS(=O)(=O)c4ccccc4[N+](=O)[O-])(O3)C2C(=O)N1c1ccccc1 (configuration not stated),active: 67 µM,
Cc1cccc2c(N=NC(=O)c3ccc(NS(=O)(=O)c4cccs4)cc3)c(O)[nH]c12,"inconclusive: 21.2 µM [inhibitor, single point]",
CCc1nnc(NS(=O)(=O)c2ccc(NC(=S)NC(=O)/C=C/c3ccc(F)cc3)cc2)s1,active: 16.8 µM,
Cc1ccc(S(=O)(=O)N2CCC(C(=O)NNC(=O)c3ccc(F)cc3)CC2)cc1,"inconclusive: 23.8 µM [inhibitor, partial curve]",
COc1ccc(NC(=O)CS(=O)(=O)c2cccc(Cl)c2)cc1,active: 21.2 µM,
Cc1nc(C(=O)Nc2ccccc2)sc1C(=O)Nc1ccccc1,active: 26.7 µM,
S=c1nc(-c2ccccn2)c(-c2ccccn2)n[nH]1,"inconclusive: 23.8 µM [inhibitor, partial curve]",
S=c1ncc2[nH]c(=S)[nH]c2[nH]1,active: 1.68 µM,

# A second format for two compounds above.
SMILES | Potency | max response, negative = inhibition
O=C1C2C3C=CC(CNS(=O)(=O)c4ccccc4[N+](=O)[O-])(O3)C2C(=O)N1c1ccccc1 (configuration not stated) | active: 67 µM | 
Cc1cccc2c(N=NC(=O)c3ccc(NS(=O)(=O)c4cccs4)cc3)c(O)[nH]c12 | inconclusive: 21.2 µM [inhibitor, single point] | 
